{"source": "PubChem BioAssay AID504808 (Drosophila RNAi Screening Center, 2011)", "aim": "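Chromatin factors that keep E2F targets switched off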 (primary screen)", "system": "Drosophila S2 cells", "reagent": "long dsRNA against Drosophila genes", "detection": "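Firefly luciferase driven by E2F sites, normalised to Renilla luciferase on the same minimal promoter, measured by plate reader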", "direction": "E2F firefly: higher = more E2F reporter activity; Renilla normaliser: higher = more normaliser reporter signal", "hit rule": "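Called active if the normalised E2F reporter went up by over 50%; the cutoff is arbitrary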", "note": "The screen tested about 21,000 reagents; below is an unselected part of those with a known target gene and a result. In the full data, 18 (0.084%) got an active call. 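Raw counts without plate normalisation, one of two replicates; the ratio scores behind the calls were not deposited.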 A plus sign joins genes that one reagent is predicted to hit. No sequences are given here. Not stated in the record: the amount of reagent, the time to read-out."}
{"target": "CG30377", "DRSC id": "DRSC06477", "E2F firefly, rep 1": 3054, "Renilla normaliser, rep 1": 213, "Call": "inactive"}
{"target": "CG30377", "DRSC id": "DRSC06799", "E2F firefly, rep 1": 1.28e5, "Renilla normaliser, rep 1": 4690, "Call": "inactive"}
{"target": "Uhg2 + snoRNA:Me18S-G1620 + snoRNA:U14:30Ea", "DRSC id": "DRSC01100", "E2F firefly, rep 1": 1.24e5, "Renilla normaliser, rep 1": 7179, "Call": "inactive"}
{"target": "Debcl", "DRSC id": "DRSC04965", "E2F firefly, rep 1": 74162, "Renilla normaliser, rep 1": 3372, "Call": "inactive"}
{"target": "Ance-2", "DRSC id": "DRSC02539", "E2F firefly, rep 1": 1.00e5, "Renilla normaliser, rep 1": 4626, "Call": "inactive"}
{"target": "AGO1", "DRSC id": "DRSC05912", "E2F firefly, rep 1": 1923, "Renilla normaliser, rep 1": 186, "Call": "inactive"}
{"target": "Ibf2", "DRSC id": "DRSC16551", "E2F firefly, rep 1": 1.37e5, "Renilla normaliser, rep 1": 5906, "Call": "inactive"}
{"target": "Cht9", "DRSC id": "DRSC04079", "E2F firefly, rep 1": 74864, "Renilla normaliser, rep 1": 3125, "Call": "inactive"}
{"target": "CG34024 (retired record)", "DRSC id": "DRSC13734", "E2F firefly, rep 1": 94977, "Renilla normaliser, rep 1": 2626, "Call": "inactive"}
{"target": "CG34247", "DRSC id": "DRSC09933", "E2F firefly, rep 1": 1.46e5, "Renilla normaliser, rep 1": 7635, "Call": "inactive"}
{"target": "CG42366", "DRSC id": "DRSC02760", "E2F firefly, rep 1": 1.39e5, "Renilla normaliser, rep 1": 4432, "Call": "inactive"}
{"target": "ND-42", "DRSC id": "DRSC16754", "E2F firefly, rep 1": 69940, "Renilla normaliser, rep 1": 3285, "Call": "inactive"}

Continued (2 carried over from the part before).
{"target": "CG42366", "DRSC id": "DRSC02760", "E2F firefly, rep 1": 1.39e5, "Renilla normaliser, rep 1": 4432, "Call": "inactive"}
{"target": "ND-42", "DRSC id": "DRSC16754", "E2F firefly, rep 1": 69940, "Renilla normaliser, rep 1": 3285, "Call": "inactive"}
{"target": "Vps28", "DRSC id": "DRSC06168", "E2F firefly, rep 1": 3457, "Renilla normaliser, rep 1": 219, "Call": "inactive"}
{"target": "Dph2", "DRSC id": "DRSC16222", "E2F firefly, rep 1": 62221, "Renilla normaliser, rep 1": 3369, "Call": "inactive"}
{"target": "Prx6c", "DRSC id": "DRSC06080", "E2F firefly, rep 1": 1.60e5, "Renilla normaliser, rep 1": 5126, "Call": "inactive"}
{"target": "CG7789", "DRSC id": "DRSC16312", "E2F firefly, rep 1": 1774, "Renilla normaliser, rep 1": 928, "Call": "inactive"}
{"target": "CG30159", "DRSC id": "DRSC04981", "E2F firefly, rep 1": 77222, "Renilla normaliser, rep 1": 3442, "Call": "inactive"}
{"target": "CG6660", "DRSC id": "DRSC16087", "E2F firefly, rep 1": 64561, "Renilla normaliser, rep 1": 2735, "Call": "inactive"}
{"target": "Pldn", "DRSC id": "DRSC10137", "E2F firefly, rep 1": 1.23e5, "Renilla normaliser, rep 1": 6062, "Call": "inactive"}
